Measurements taken from publication PMC11048240.
These are yes or no findings as the source states them, for the method shown. Binding seen in cells or lysates may run through a third protein. Some binding calls cover weakened binding; strength is not graded here.

The chains behind the UniProt entries cited, without tags or fusion partners.
UniProt Q91XJ1: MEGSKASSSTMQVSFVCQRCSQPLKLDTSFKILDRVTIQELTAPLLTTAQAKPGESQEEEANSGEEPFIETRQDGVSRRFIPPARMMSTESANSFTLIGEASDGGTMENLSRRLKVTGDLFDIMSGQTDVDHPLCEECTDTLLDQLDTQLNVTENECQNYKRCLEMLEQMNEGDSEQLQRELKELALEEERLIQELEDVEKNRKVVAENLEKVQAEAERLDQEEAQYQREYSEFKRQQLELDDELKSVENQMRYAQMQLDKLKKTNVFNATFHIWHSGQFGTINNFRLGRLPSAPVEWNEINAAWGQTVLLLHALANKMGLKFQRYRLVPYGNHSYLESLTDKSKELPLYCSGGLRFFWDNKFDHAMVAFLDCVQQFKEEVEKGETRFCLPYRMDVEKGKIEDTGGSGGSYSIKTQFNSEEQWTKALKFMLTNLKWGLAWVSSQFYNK
UniProt P49950: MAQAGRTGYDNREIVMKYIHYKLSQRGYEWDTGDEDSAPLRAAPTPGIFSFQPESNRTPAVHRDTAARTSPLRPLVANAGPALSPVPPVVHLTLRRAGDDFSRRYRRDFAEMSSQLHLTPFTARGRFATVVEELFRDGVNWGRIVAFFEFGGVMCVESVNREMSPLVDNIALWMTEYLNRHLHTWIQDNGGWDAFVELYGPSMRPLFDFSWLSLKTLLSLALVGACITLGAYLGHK

Molecular target: Beclin1 (rat (endogenous in rat brain tissue)) (UniProt Q91XJ1)
Assay: co-IP; rat brain tissue homogenate supernatant; Protein A/G agarose with antibodies against Beclin1 and Bcl-2, 4 °C overnight, five washes with 1x PBS, immunoblot; groups Sham, Model, rt-PA

In the case of “B cell leukemia/lymphoma 2 (Bcl-2) (from UniProt P49950 1-236)”, the binding is reported as “binds”.
